Assay results taken from US5576339A, “Pyridyl substituted cyclopentadienes for the treatment of inflamation” (priority 1995, dated 1996).
At least one structure is not confirmed: it was looked up by name or label, or the drawing left a doubt.

Experiments:
COX I = assay: Assay for COX I activity (PGE2 ELISA, recombinant enzyme); assay type: biochemical, human or murine; conditions: arachidonic acid (10 μM), pre-incubated 10-20 minutes, pH 8.0; read-out: COX I ID50
Method: (§1) A 2.0 kb fragment containing the coding region of either human or murine COX-I or human or murine COX-II was cloned into a BamH1 site of the baculovirus transfer vector pVL1393 (Invitrogen) to generate the baculovirus transfer vectors for COX-I and COX-II in a manner similar to the method of D. R. O'Reilly et al (Baculovirus Expression Vectors: A Laboratory Manual (1992)). Recombinant baculoviruses were isolated by transfecting 4 μg of baculovirus transfer vector DNA into SF9 insect cells (2×10e8) along with 200 ng of linearized baculovirus plasmid DNA by the calcium phosphate method. See M. D. Summers and G. E. Smith, A Manual of Methods for Baculovirus Vectors and Insect Cell Culture Procedures. Texas Agric. Exp. Station Bull. 1555 (1987). Recombinant viruses were purified by three rounds of plaque purification and high titer (10E7-10E8 pfu/ml) stocks of virus were prepared. For large scale production, SF9 insect cells were infected in 10 liter fermentors (0.5×10^6 /ml) with the recombinant baculovirus stock such that the multiplicity of infection was 0.1. […]
(§2) COX activity was assayed as PGE2 formed/μg protein/time using an ELISA to detect the prostaglandin released. […] The PGE2 formed was measured by standard ELISA technology (Cayman Chemical).

COX II = assay: Assay for COX II activity (PGE2 ELISA, recombinant enzyme); assay type: biochemical, human or murine; conditions: arachidonic acid (10 μM), pre-incubated 10-20 minutes, pH 8.0; read-out: COX II ID50
Method: as §1, §2

**Q.** Which IC50 (COX I) does the source give for CC1(C)C=C(c2ccc(F)cc2)C(c2ccc(S(N)(=O)=O)cc2)=C1 [Example 2, 4-[4-(4-Fluorophenyl)-1,1-dimethylcyclopenta-2,4-dien-3-yl]benzenesulfonamide] here?
**A.** The IC50 was 20 nM.

**Q.** And the IC50 (COX II)?
**A.** Its IC50 is under 10 nM.
